Data source: PubChem BioAssay AID1671195 (Yale University, 2021)
Assay: 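Genes whose knockdown alters LDL uptake in liver cancer cells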 (primary screen). Cells: human Huh7 hepatoma cells. Reagent: siRNA pool against human genes, 18 nM. Time to read-out: about 2 to 2.5 days of knockdown, then 8 h LDL uptake. Treatment: DiI-labelled LDL at 30 µg/ml for 8 h, in lipoprotein-deficient serum medium. Detection: 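Per-cell DiI-LDL intensity by automated imaging; well means scaled to the plate median and given as a robust z-score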. Scale: robust z-score: higher = more LDL uptake after knockdown. Rule for the call: 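Active when two or more replicates show a robust z-score above 2 or below -2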.
In all, the deposit lists about 22,000 reagents; shown is a random part of them. Of all reagents, about 1,510 (6.9%) were called active. 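Active includes knockdowns raising or lowering LDL uptake; positive z-scores mean more uptake, negative mean less.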 Reagent sequences are not shown.

no.	Target gene	robust z-score, replicate 1	robust z-score, replicate 2	robust z-score, replicate 3	call
1	OAS3 (2'-5'-oligoadenylate synthetase 3)	-0.239	1.7	-0.362	inactive
2	HSPA13 (heat shock protein family A (Hsp70) member 13)	1.94	2.21	1.92	active
3	LOC389904 (retired record)	0.297	0.828	0.97	inactive
4	LOC388929 (retired record)	1.13	1.6	1.37	inactive
5	TTYH2 (tweety family member 2)	-1.3	-1.08	-1.15	inactive
6	SLC25A38	-0.174	0.496	-0.174	inactive
7	FIGNL1 (fidgetin like 1)	1.33	2.54	1.69	inactive
8	KRTCAP3 (keratinocyte associated protein 3)	-1.19	-0.633	-0.76	inactive
9	RTN4IP1 (reticulon 4 interacting protein 1)	0.811	0.558	0.168	inactive
10	PPIAL4A (peptidylprolyl isomerase A like 4A)	0.385	0.541	0.0463	inactive
11	REG1B (regenerating family member 1 beta)	-0.426	-0.236	-0.157	inactive
12	ZNF444 (zinc finger protein 444)	-0.774	-0.789	-0.91	inactive
13	ZNF229 (zinc finger protein 229)	1.15	1.62	0.88	inactive
14	GOLGA2P7 (GOLGA2 pseudogene 7)	0.489	0.374	0.918	inactive
15	MED12L (mediator complex subunit 12L)	-0.193	1.35	-0.722	inactive
16	RPL19P10 (ribosomal protein L19 pseudogene 10)	0.648	0.697	0.734	inactive
17	LINC01879 (long intergenic non-protein coding RNA 1879)	0.113	-0.393	-0.224	inactive
18	ZNF699 (zinc finger protein 699)	0.291	0.514	0.0694	inactive
19	OR52N5 (olfactory receptor family 52 subfamily N member 5)	3.3	3.27	2.96	active
20	OLFML2B (olfactomedin like 2B)	-0.342	0.161	-0.131	inactive
21	IFNGR1 (interferon gamma receptor 1)	0.146	-0.626	0.027	inactive
22	BIVM (basic, immunoglobulin-like variable motif containing)	0.293	0.0411	-2.24	inactive
23	RANBP6 (RAN binding protein 6)	0.125	-1.77	0.0399	inactive
24	CCDC198 (coiled-coil domain containing 198)	-0.364	-1.16	0.89	inactive
25	CBLN2 (cerebellin 2 precursor)	-0.857	-1.06	-0.644	inactive
26	SOCS7 (suppressor of cytokine signaling 7)	0.874	1.58	-0.843	inactive
27	RBM7 (RNA binding motif protein 7)	0.151	1.98	0.453	inactive
28	LOC389413 (retired record)	-2.23	-2.33	-2.19	active

In a second layout: 3 of the entries above.
{"Target gene":"RTN4IP1 (reticulon 4 interacting protein 1)","robust z-score, replicate 1":0.811,"robust z-score, replicate 2":0.558,"robust z-score, replicate 3":0.168,"call":"inactive"}
{"Target gene":"PPIAL4A (peptidylprolyl isomerase A like 4A)","robust z-score, replicate 1":0.385,"robust z-score, replicate 2":0.541,"robust z-score, replicate 3":0.0463,"call":"inactive"}
{"Target gene":"REG1B (regenerating family member 1 beta)","robust z-score, replicate 1":-0.426,"robust z-score, replicate 2":-0.236,"robust z-score, replicate 3":-0.157,"call":"inactive"}
